Source: paper PMC7332983
No constants are given. Whether binding was seen depends on the method and setting. In cells and extracts the contact can be indirect. Some results given as binding are weak or reduced against the parent protein; the word gives no strength. Sequences can lack the tags named with a protein.

Sequences of proteins named here, by UniProt entry; tags and fusion partners are left off.
UniProt Q15154: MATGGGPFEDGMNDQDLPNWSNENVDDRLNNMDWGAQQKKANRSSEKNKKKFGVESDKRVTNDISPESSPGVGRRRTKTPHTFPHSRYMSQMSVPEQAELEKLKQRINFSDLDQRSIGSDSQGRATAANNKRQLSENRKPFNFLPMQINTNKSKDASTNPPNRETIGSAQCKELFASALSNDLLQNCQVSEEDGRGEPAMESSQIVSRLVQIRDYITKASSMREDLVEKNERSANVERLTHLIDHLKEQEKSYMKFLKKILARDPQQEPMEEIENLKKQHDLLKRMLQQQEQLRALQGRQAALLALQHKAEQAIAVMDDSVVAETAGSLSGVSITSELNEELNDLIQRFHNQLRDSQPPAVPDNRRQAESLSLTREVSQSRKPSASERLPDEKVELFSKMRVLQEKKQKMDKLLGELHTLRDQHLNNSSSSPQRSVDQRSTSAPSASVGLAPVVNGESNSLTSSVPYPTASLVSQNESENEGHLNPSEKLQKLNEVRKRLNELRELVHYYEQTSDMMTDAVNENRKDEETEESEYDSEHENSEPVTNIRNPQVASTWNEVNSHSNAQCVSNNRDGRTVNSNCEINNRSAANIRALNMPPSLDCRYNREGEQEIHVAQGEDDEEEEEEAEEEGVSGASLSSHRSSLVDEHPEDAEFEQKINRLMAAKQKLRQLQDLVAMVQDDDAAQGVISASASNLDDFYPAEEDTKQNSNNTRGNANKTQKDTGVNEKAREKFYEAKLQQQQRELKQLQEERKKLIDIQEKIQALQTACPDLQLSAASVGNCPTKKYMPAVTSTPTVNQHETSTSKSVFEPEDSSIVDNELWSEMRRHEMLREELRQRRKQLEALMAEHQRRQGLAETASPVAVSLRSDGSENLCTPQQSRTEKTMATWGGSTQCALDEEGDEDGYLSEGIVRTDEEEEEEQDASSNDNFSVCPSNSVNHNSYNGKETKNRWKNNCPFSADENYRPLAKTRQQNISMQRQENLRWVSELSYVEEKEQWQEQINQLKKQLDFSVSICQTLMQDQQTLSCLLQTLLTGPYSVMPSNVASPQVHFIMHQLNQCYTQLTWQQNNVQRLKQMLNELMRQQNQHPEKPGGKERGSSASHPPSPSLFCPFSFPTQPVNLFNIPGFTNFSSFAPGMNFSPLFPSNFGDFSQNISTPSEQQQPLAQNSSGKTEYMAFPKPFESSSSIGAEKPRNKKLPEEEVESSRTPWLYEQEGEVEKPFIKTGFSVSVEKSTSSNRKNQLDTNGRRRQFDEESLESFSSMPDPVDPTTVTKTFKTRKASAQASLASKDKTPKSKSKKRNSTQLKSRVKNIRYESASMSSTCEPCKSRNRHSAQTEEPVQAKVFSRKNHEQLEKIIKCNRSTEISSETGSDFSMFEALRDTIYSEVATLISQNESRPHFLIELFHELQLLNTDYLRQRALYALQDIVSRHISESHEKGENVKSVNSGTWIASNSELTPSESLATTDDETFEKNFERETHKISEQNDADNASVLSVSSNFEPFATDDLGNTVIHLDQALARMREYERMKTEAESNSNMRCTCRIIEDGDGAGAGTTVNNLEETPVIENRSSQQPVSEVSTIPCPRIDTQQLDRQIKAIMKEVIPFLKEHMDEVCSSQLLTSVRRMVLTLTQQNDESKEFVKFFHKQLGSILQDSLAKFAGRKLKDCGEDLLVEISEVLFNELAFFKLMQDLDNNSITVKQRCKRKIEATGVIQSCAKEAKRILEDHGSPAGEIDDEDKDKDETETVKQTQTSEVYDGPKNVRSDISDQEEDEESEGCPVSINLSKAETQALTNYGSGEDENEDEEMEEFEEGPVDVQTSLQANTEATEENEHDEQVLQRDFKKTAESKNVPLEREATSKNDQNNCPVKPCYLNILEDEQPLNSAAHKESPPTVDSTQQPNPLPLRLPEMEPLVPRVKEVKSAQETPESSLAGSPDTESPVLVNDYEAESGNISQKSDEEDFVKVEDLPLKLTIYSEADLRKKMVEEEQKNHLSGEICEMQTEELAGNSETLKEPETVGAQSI

Legend:
[1] = biological target: T1, 3xFLAG-tagged full-length trichoplein (TCHP), FLAG at the N-terminus (human) (UniProt Q9BT92); experiment: co-IP; HEK293 transfected for 48 h; total lysates immunoprecipitated with anti-FLAG antibodies, blots probed with anti-PCM1, anti-FLAG and anti-ACTIN
T1 sequence: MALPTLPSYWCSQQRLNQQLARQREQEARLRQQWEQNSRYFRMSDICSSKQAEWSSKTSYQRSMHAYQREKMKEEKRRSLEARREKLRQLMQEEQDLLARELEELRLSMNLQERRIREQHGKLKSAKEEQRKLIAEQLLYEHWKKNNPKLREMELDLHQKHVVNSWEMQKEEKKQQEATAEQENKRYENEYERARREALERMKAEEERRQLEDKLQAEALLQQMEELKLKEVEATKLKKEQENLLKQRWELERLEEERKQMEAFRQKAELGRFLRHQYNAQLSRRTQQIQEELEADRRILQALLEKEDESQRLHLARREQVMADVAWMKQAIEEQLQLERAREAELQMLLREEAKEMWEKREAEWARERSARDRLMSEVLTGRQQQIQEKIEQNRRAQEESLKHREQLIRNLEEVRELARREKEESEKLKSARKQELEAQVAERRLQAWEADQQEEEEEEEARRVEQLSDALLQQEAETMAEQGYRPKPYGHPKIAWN

[2] = biological target: T2, TCHP-FLAG, FLAG at the C-terminus (human) (UniProt Q9BT92); experiment: as above
T2 sequence: T1 sequence

- binding [1]: binds
- binding [2]: binds
Substance: PCM1, centriolar satellite protein, endogenous in HEK293 cells (from UniProt Q15154 1-2024)
